These are yes or no findings as the source states them, for the method shown. Binding seen in cells or lysates may run through a third protein. Some entries that bind do so weakly or less than the wild type.
Target: Fbxw7-FLAG (UniProt Q969H0)
Test: co-IP; hsf1-/- MEFs co-expressing Fbxw7-FLAG and WT HSF1 or S303A; lysis in 50 mM Tris pH 7.4, 10% glycerol, 150 mM NaCl, 1 mM EDTA, 1% Triton X-100; anti-FLAG M2 magnetic beads overnight at 4 °C; HSF1 detected by immunoblot

Chains of the proteins cited; added tags and fusions are not shown. Lines headed by an entry give the natural chain unless they say otherwise; changes in a name come on top.
UniProt Q969H0: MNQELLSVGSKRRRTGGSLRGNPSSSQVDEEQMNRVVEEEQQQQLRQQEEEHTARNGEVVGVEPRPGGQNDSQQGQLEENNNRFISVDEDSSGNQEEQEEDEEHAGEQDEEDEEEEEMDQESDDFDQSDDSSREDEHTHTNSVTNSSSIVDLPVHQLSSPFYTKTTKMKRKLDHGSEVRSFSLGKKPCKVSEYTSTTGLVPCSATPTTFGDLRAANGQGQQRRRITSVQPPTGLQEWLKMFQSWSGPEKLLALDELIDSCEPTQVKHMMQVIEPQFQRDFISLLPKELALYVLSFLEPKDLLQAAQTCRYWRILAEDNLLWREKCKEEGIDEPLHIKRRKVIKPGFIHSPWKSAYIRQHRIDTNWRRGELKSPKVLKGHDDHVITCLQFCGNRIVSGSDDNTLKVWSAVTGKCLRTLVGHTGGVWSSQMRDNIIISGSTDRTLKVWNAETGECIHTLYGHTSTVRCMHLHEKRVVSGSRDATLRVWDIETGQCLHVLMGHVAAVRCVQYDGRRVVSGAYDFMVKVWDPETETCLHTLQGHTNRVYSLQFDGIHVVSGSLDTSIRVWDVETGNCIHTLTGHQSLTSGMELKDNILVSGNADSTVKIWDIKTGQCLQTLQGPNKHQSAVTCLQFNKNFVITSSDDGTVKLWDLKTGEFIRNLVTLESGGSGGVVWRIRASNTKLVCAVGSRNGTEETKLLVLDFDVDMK
UniProt Q00613: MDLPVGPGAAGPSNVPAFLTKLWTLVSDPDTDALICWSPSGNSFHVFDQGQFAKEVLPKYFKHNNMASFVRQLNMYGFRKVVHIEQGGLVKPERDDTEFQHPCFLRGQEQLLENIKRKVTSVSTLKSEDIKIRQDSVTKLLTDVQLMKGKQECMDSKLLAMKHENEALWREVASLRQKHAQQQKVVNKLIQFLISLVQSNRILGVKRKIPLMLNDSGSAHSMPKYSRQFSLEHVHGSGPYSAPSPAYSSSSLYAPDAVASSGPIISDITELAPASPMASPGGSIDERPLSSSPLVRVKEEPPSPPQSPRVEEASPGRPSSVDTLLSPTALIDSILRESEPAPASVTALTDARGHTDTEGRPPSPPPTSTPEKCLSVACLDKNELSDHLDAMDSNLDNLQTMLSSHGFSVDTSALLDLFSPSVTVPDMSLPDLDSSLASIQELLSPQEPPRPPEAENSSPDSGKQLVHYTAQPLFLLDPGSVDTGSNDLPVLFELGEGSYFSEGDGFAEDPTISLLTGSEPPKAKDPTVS

Substance | binding
HSF1 S303A mutant (from UniProt Q00613 1-529) | binds
heat shock transcription factor 1 (HSF1), wild type (from UniProt Q00613 1-529) | binds

— PMC5316841
